Results as given in PMC12548414.
Screen size: about 1,600 compounds; about 20 (1%) showed an effect of 50% or more. The list shows a part of the results.

Tested on: T1, E. coli pLC1021 (luc-trpAt trans-translation reporter)
T1 construct: pLC1021 luc-trpAt reporter strain
Design: species or system Escherichia coli pLC1021; luc-trpAt non-stop luciferase reporter; luminescence rises when trans-translation is inhibited; normalized to KKL-35 and DMSO
Conditions: reporter signal, KKL-35 = 100%; rise means trans-translation inhibition; 2 h, 20 µM
Method in brief: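 Cells carrying the non-stop luc-trpAt reporter were exposed to 20 µM compound for 2 h at room temperature, then Bright-Glo was added and luminescence read at 560 nm after 10 min. Signals were normalised per plate to DMSO and 20 µM KKL-35 wells. Hits: activity one SD above the median; ≥2 biological repeats averaged.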

| Compound | % activation |
| --- | --- |
| CCOc1cccc(-c2csc(NC(=O)c3cnc(SC)nc3)n2)c1 [KKL-0467] | 0% |
| CCCc1ccc2oc(C(=O)NCCc3ccc(O)cc3)c(C)c2c1 [KKL-1185] | 2% |
| Cc1ccccc1CN1CCC(O)(c2ccc(Cl)c(C(F)(F)F)c2)CC1 [KKL-1761] | 3% |
| CCCCSc1ccc(NCCC(=O)c2ccco2)cc1 [KKL-1462] | 3% |
| CCN(CC)c1ccc(NC(S)=NCCc2ccc(OC)c(OC)c2)cc1 [KKL-1550] | 0% |
| CC1CCN(C(=S)NC(=O)c2ccc(Cl)cc2)CC1 [KKL-0746] | 13% |
| N#Cc1ccccc1NC(=O)CSc1nc2cc3ccccc3cc2[nH]1 [KKL-0612] | 0% |
| O=C(c1ccc2c(c1)no[n+]2[O-])N1CCCC(N2CCN(c3ccc(F)cc3)CC2)C1 (stereo not drawn) [KKL-0626] | 4% |
| COc1cccc(CN2CCC(c3c[nH]c4ccc(OC)cc34)C2)c1 (stereo not drawn) [KKL-0514] | 2% |
| O=C(Nc1cccc(Cl)c1)c1cc(Br)ccc1Cl [KKL-0866] | 0% |
| O=C(N[C@@H]1CN(C(=O)Nc2ccc(OC(F)(F)F)cc2)CCC[C@H]1O)c1ccc(OCc2ccccc2)cc1 [KKL-0549] | 1% |
| COC(=O)COc1ccc(NC(=O)c2ccccc2Br)cc1 [KKL-1572] | 0% |
| CCN(C(=O)C1CCCCC1)c1nc2c(s1)CCc1oc(C)cc1-2 [KKL-0332] | 0% |
| O=C(CSc1ccc(Cl)cc1)Nc1ccc(Cl)c(C(F)(F)F)c1 [KKL-0865] | 0% |
| O=C(Nc1cccnc1)c1c(O)c2cccc3c2n(c1=O)CC3 [KKL-0455] | 0% |
| O=[N+]([O-])c1ccc2[nH]c(CSc3nc4ccccc4o3)nc2c1 [KKL-0291] | 0% |
| CC(C)Cn1ncc2c1CCc1sc(N(C)C(=O)c3noc4c3CCCC4)nc1-2 [KKL-0445] | 0% |
| NC1CCc2nc(-c3ccncc3)nc(Nc3cccc(C(F)(F)F)c3)c2C1 (stereo not drawn) [KKL-0541] | 802% |
| CCOC(=O)COc1ccc2c(=O)c(-c3ccccc3Cl)c(C)oc2c1C [KKL-0749] | 2% |
| CCC(NCc1cn(-c2ccc(C)cc2)nc1-c1cccc(C)c1)c1ccncc1 (stereo not drawn) [KKL-1165] | 0% |
| Cc1ccc(N=C2C=C(NS(=O)(=O)c3cccs3)c3ccccc3C2=O)c(C)c1 [KKL-1144] | 0% |
| COc1cccc(O)c1CN1CCC(C(=O)Nc2ccc(-c3cccc(C)c3)cc2)CC1 [KKL-0508] | 0% |

Shown as labelled records: four of the compounds above
O=C(Nc1cccnc1)c1c(O)c2cccc3c2n(c1=O)CC3 [KKL-0455]
  % activation: 0%
O=[N+]([O-])c1ccc2[nH]c(CSc3nc4ccccc4o3)nc2c1 [KKL-0291]
  % activation: 0%
CC(C)Cn1ncc2c1CCc1sc(N(C)C(=O)c3noc4c3CCCC4)nc1-2 [KKL-0445]
  % activation: 0%
NC1CCc2nc(-c3ccncc3)nc(Nc3cccc(C(F)(F)F)c3)c2C1 (stereo not drawn) [KKL-0541]
  % activation: 802%

(list continues)

| Compound | % activation |
| --- | --- |
| Cc1nc([N+](=O)[O-])c(Br)n1Cc1ccc(Cl)c(Cl)c1 [KKL-1116] | 0% |
| Cc1cc(C)cc(NC(=O)COc2cccc(C=O)c2)c1 [KKL-0574] | 1% |
| S=C(NCCc1ccc(Cl)cc1)Nc1ccc(Nc2ccccc2)cc1 [KKL-1444] | 4% |
| CSCCC(=O)N1CCCC(C(=O)Nc2cccc(-c3ccc(F)cc3)c2)C1 (stereo not drawn) [KKL-0635] | 9% |
| CCc1cccc2c(C(=O)COC(=O)c3ccc([N+](=O)[O-])s3)c[nH]c12 [KKL-0796] | 40% |
| O=C(Oc1ccccc1)c1cccc2cccnc12 [KKL-0585] | 0% |
| O=C(Oc1cccc2cccnc12)c1ccco1 [KKL-0756] | 0% |
| O=C(/C=C/c1ccccc1)/C=C/c1ccccc1 [KKL-1604] | 0% |
| CCn1c(C)cc2cc(NC(=O)c3cnc(SC)nc3)ccc21 [KKL-0459] | 3% |
| Fc1ccc(Cc2nnc(-c3ccnc(Nc4ccc(OCCN5CCOCC5)cc4)n3)[nH]2)cc1 [KKL-1879] | 2% |
| O=C(CSc1ccc(Cl)cc1)Nc1ccc(Br)cn1 [KKL-0722] | 8% |
| O=C(Oc1c(Cl)cc(Cl)c2cccnc12)c1ccco1 [KKL-1639] | 0% |
| COc1ccc(Nc2ccccc2NC(=O)c2ccc(O)nc2)cc1 [KKL-1702] | 2% |
| CC1CCN(c2nc(-c3ccncc3)nc3ccccc23)CC1 [KKL-1078] | 1% |
| CC(=O)c1ccc(S(=O)(=O)c2ccc(C)cc2)c([N+](=O)[O-])c1 [KKL-0967] | 8% |
| COc1cc(CN2CCC3(C=Cc4ccccc43)CC2)cc2c1OCO2 [KKL-1680] | 4% |
| C[C@H]1CN(C(=O)c2cc(-c3ccc4c(c3)OCO4)on2)[C@@H](C)CN1Cc1ccco1 [KKL-0546] | 0% |
| CCOC(=O)c1c(NC(=O)c2c(F)c(F)c(F)c(F)c2F)sc(C(=O)OC)c1C [KKL-1578] | 0% |
| O=[N+]([O-])c1ccc(N2CCN(C(S)=NCc3ccc(Cl)cc3)CC2)cc1 [KKL-1318] | 0% |
| Cc1ccccc1C1c2[nH]c3ccccc3c2CCN1C(=O)c1cccc(C#CC(C)(C)O)c1 (stereo not drawn) [KKL-1154] | 0% |
| COc1ccc2c(c1)CCC1Sc3ccccc3N=C21 (stereo not drawn) [KKL-1412] | 0% |
| C1=CC2CC1CC2CN1CCC(N(CCc2ccccc2)Cc2ccccc2)CC1 (stereo not drawn) [KKL-0906] | 0% |

| Compound | % activation |
| --- | --- |
| COc1c2ccoc2nc2c(OC)cccc12 [KKL-1232] | 0% |
| Cc1ccccc1/C=C/c1ccc2cccc(O)c2n1 [KKL-0432] | 11% |
| COc1ccc(-c2[nH]c(-c3ccc([N+](=O)[O-])cc3)nc2-c2ccccc2)cc1 [KKL-0418] | 11% |
| COc1ccc2c(c1)NC1(CCN(CC3=Cc4ccccc4OC3)CC1)c1cccn1-2 [KKL-1253] | 0% |
| O=C(NC(Nc1nc2ccc([N+](=O)[O-])cc2s1)(C(F)(F)F)C(F)(F)F)c1ccccc1Cl [KKL-0382] | 0% |
| c1ccc(-c2nc(N3CCCCCC3)nc(-n3ccnc3)n2)cc1 [KKL-1522] | 1% |
| CCCC/C=C/c1cc2ccncc2cc1OC1CCNCC1 [KKL-1813] | 3% |
| Cc1ccc(-n2cc(CN(C)CCn3ccnc3)c(-c3ccc(F)cc3)n2)cc1 [KKL-0654] | 3% |
| COC(=O)COc1ccc(NC(=O)c2ccc3c(c2)C(=O)N(C(C)(C)C)C3=O)cc1 [KKL-1298] | 0% |
| Cc1ccc(-c2csc3ncn(C(C)C(=O)OC4CCCCC4)c(=O)c23)cc1C (stereo not drawn) [KKL-0731] | 0% |
| COc1ccc(-c2nnc(SCC(=O)NCCc3ccccc3)o2)cc1 [KKL-0428] | 4% |
| COC(=O)COc1ccc(NC(=O)c2ccccc2I)cc1 [KKL-1569] | 0% |
| C=CCc1cc(C)ccc1OCCCCn1ccnc1 [KKL-1325] | 1% |
| CC(=O)Nc1nc2ccccc2n1Cc1ccccc1 [KKL-0379] | 0% |
| Cc1cc(C)n(-c2nc(NC(C)C)nc(NC(C)C)n2)n1 [KKL-1638] | 0% |
| Cc1cc(C(=O)CCl)c(C)n1Cc1ccco1 [KKL-1654] | 0% |
| Clc1ccc(OCCCCn2ccnc2)c(Br)c1 [KKL-1322] | 0% |
| Cc1ccc(C(=O)NCCC2=CCCCC2)cc1I [KKL-1410] | 2% |
| Cc1ccc(-n2cc(CNCCc3ccccn3)c(-c3cccc(C)c3)n2)cc1 [KKL-1177] | 0% |
| CCOC(=O)CSc1nnc2c3sc4nc(N5CCOCC5)c5c(c4c3ncn12)CC(C)(C)OC5 [KKL-1344] | 0% |
| COC(=O)COc1ccc(NC(=O)COc2ccc(C)cc2C)cc1 [KKL-1458] | 4% |
| Cc1ccc(NC(=O)C(Cl)Cl)cc1[N+](=O)[O-] [KKL-1373] | 4% |

A second format for some results above.
Compound | % activation
COc1ccc(-c2[nH]c(-c3ccc([N+](=O)[O-])cc3)nc2-c2ccccc2)cc1 [KKL-0418] | 11%
COC(=O)COc1ccc(NC(=O)c2ccccc2I)cc1 [KKL-1569] | 0%

(further entries)

| Compound | % activation |
| --- | --- |
| COc1ccc(NC(=O)c2c(NC(=O)c3ccc([N+](=O)[O-])o3)sc3c2CCC3)cc1 [KKL-1310] | 0% |
| CSCCC(=O)NC1CCCc2c1cnn2-c1ccc(C(C)(C)C)cc1 (stereo not drawn) [KKL-1164] | 2% |
| Cc1cc(Nc2ccccc2)n(-c2nc3ccccc3[nH]2)n1 [KKL-0835] | 21% |
| Cc1ccc(C2(O)CCN(CCNC(=O)c3oc4ccccc4c3C)CC2)cc1 [KKL-0340] | 1% |
| Cc1cc2c(cc1C)C(O)CC1(CCN(CC(O)c3ccc4ccccc4c3)CC1)O2 (stereo not drawn) [KKL-0674] | 0% |
| Cc1cccc(Cn2ccc(NC(=O)c3ccc4c(c3)OCO4)n2)c1 [KKL-1673] | 3% |
| O=C(Nc1nc(-c2ccccn2)cs1)c1ncc(Cl)c(Cl)c1Cl [KKL-0390] | 10% |
| Nc1nnc(Sc2ccc([N+](=O)[O-])c3ncccc23)s1 [KKL-1399] | 0% |
| COc1ccccc1C1(O)CCN(Cc2[nH]c3ccc(C)cc3c2C)CC1 [KKL-0707] | 7% |
| N#Cc1ncn(-c2ccc3nnc(C(F)(F)F)n3n2)n1 [KKL-1886] | 0% |
| Cc1c(OC(=O)c2ccccc2Cl)ccc2c1CCCC2 [KKL-1558] | 0% |
| Cc1ccc2nc(-c3ccccn3)c(Nc3ccccc3C)n2c1 [KKL-1511] | 0% |
| NC(=Nc1nc(-c2ccccn2)cc2ccccc12)c1cccc(Cl)c1 [KKL-1764] | 0% |
| O=C(Nc1ccc(OC(F)(F)C(F)F)cc1)Nc1cccc(Cl)c1 [KKL-1323] | 0% |
| CCOC(=O)C1CCCN(c2ccc([N+](=O)[O-])c3nonc23)C1 (stereo not drawn) [KKL-1513] | 0% |
| OC(CN1CCC2(CC1)CC(O)c1cc(Cl)ccc1O2)c1ccc2ccccc2c1 (stereo not drawn) [KKL-0552] | 0% |
| COc1ccc2cc(C(=O)Nc3ccc(C4CCN(C)CC4)cc3)sc2c1 [KKL-1818] | 1% |
| Nc1cccnc1Nc1ccc(Cl)cc1 [KKL-1858] | 0% |
| O=C(CNC(=O)/C(=C\c1ccc(Br)cc1)NC(=O)c1ccccc1)OCc1ccccc1 [KKL-0366] | 2% |
| COC(=O)CSc1nnc(-c2ccc(OC)cc2OC)o1 [KKL-1650] | 2% |
| Brc1cncc(-c2cc(NCCCn3ccnc3)nc(-c3ccccc3)n2)c1 [KKL-1784] | 0% |
